Results taken from patent US20260022166A1.
These are yes or no findings as the source states them, for the method shown. Some entries that bind do so weakly or less than the wild type.

Legend:
[1] = target: His-tagged human TSLP antigen (huTSLP-his) (human); experiment: ELISA, coated huTSLP-his
[2] = target: His-tagged human TSLP antigen (huTSLP-his) (human); experiment: ELISA

binding [1]	binding [2]	Binder
binds	binds	hu119-11 (antibody, human IgG1, kappa, V domains shown) VH: EVQLVQSGAEVKKPGSSVKVSCKASGFTFSTYNMHWVKHAPGQGLEWIGAIYPGNGETSYNQKFKDRATLTVDKSTSTAYMELSSLRSEDTAVYYCAREDDYGEGYFDVWGQGTTVTVSS VL: DIVMTQSPDSLAVSLGERATINCRASESVDNSGLSFMHWYQQKPGQPPKLLLYRASNLGSGIPDRFSGSGSGTDFTLTISSLQAEDVAVYYCQQINTDPLTFGQGTKLEIKR
binds	binds	hu119-12 (antibody, human IgG1, kappa, V domains shown) VH: EVQLVQSGAEVKKPGSSVKVSCKASGFTFSTYNMHWVKHAPGQGLEWIGAIYPGNGETSYNQKFKDRATLTVDKSTSTAYMELSSLRSEDTAVYYCAREDDYGEGYFDVWGQGTTVTVSS VL: DIVMTQSPDSLAVSLGERATINCRASESVDNSGLSFMHWYQQKPGQPPKLLLYRASNLGSGIPDRFSGSGSGTDFTLTISSLQAEDVAVYYCQQINTDPLTFGQGTKLEIKR
binds	binds	hu119-13 (antibody, human IgG1, kappa, V domains shown) VH: EVQLVQSGAEVKKPGSSVKVSCKASGFTFSTYNMHWVKHAPGQGLEWIGAIYPGNGETSYNQKFKDRATLTVDKSTSTAYMELSSLRSEDTAVYYCAREDDYGEGYFDVWGQGTTVTVSS VL: EIVLTQSPATLSLSPGERATLSCRASESVDNSGLSFMHWYQQKPGQAPRLLIYRASNLGSGIPARFSGSGSGTDFTLTISSLEPEDFAVYYCQQINTDPLTFGQGTKLEIKR
binds	binds	hu119-29 (antibody, human IgG1, kappa, V domains shown) VH: EVQLVQSGAEVKKPGSSVKVSCKASGFTFSTYNMHWVKHAPGQGLEWIGAIYPGNGETSYNQKFKDRATLTVDKSTSTAYMELSSLRSEDTAVYYCAREDDYGEGYFDVWGQGTTVTVSS VL: DIVLTQSPDSLAVSLGERATINCRASESVDQSGLSFMHWYQQKPGQPPKLLIYRASNLGSGVPDRFSGSGSGTDFTLTISSLQAEDVAVYYCQQINTDPLTFGQGTKLEIKR
binds	binds	hu119-28 (antibody, human IgG1, kappa, V domains shown) VH: EVQLVQSGAEVKKPGSSVKVSCKASGFTFSTYNMHWVKHAPGQGLEWIGAIYPGNGETSYNQKFKDRATLTVDKSTSTAYMELSSLRSEDTAVYYCAREDDYGEGYFDVWGQGTTVTVSS VL: DIVLTQSPDSLAVSLGERATINCRASESVDSSGLSFMHWYQQKPGQPPKLLIYRASNLGSGVPDRFSGSGSGTDFTLTISSLQAEDVAVYYCQQINTDPLTFGQGTKLEIKR
